Measured values published in patent publication US4492698A, “Diphenylbutyl-1-acylpiperazines” (priority 1980, dated 1985).

Key:
[1] = tested on: male NMRI mice; assay: isolation-induced aggressive behaviour; assay type: in vivo; settings: Mus musculus, sc, 0.5 h, read-out: ED50 (dose inhibiting aggressive behaviour among 50 percent of the pairs)
Text: Male mice subjected to prolonged isolation develop aggressive behaviour against each other when paired (Yen, C. Y. et al., Arch. Int. Pharmacodyn. 123, 179, (1959); Valzelli, L., Adv. Pharmacol. 5, 79 (1967)). […] The clinical correlation of this test indicates tranquillizing and anxiolytic activities as well as antiaggressive properties as such (Duncan, R. L. et al., J. Med. Chem. 13, 1 (1970)).
This type of aggression is interesting because it is known that this kind of emotional behaviour might be located in limbic structures in the brain (MacLean, P. D., Psychosom. Med. 11, 338 (1949)).
Every week male NMRI mice, weighing 20-22 g, were isolated in Makrolon cages for three weeks with diet and water ad libitum. A piece of cardboard was placed between the cages to prevent visual contact.
To test aggressiveness the mice were paired in a neutral area, a beaker (14 cm high and diameter 14 cm). A pair is considered aggressive if both the animals show clear signs of fighting within 5 min. This fighting is characterized by biting and vocalization. As soon as fighting is seen, the mice are separated and brought to their home cage. […] Animals showing no aggression are discarded. […] The test substance is administered s.c. (0.2-0.4 ml/20 g). The mice are paired 0.5 h after the injection for trials of 5 min. duration. […]

[2] = tested on: mice (NMRI); assay: writhing test (acetic acid), analgetic properties; assay type: in vivo; settings: Mus musculus, sc, read-out: ED50 (dose blocking the writhing behaviour in 50% of the animals)
Description: The writhing test is a frequently used test of analgetic properties (Witkin, L. B. et al., J. Pharmacol. Exp. Ther. 133, 400 (1961)). If acetic acid (0.5%, 15 ml/kg) is injected intraperitoneally in mice (NMRI) they will without exception develop a writhing behaviour characterized by stretching their hind legs. The drugs to be tested were administered subcutaneously to 6 female mice at each dose 20 min. before the injection of the acetic acid. After 10 min. The behaviour of the mice was studied in 5 min. The ED50 value is the dose blocking the writhing behaviour in 50% of the animals during the 5 min. study period.

Row | Compound | ED50 [1] [mg/kg] | ED50 [2] [mg/kg]
1 | CN1C(=O)CN=C(c2ccccc2)c2cc(Cl)ccc21 [Diazepam] | 6.7 | –
2 | CN1CC[C@]23c4c5ccc(O)c4O[C@H]2[C@@H](O)C=C[C@H]3[C@H]1C5 [Morphine] | – | 1.6
